According to paper PMC4758748:
Results are given in words; binding and its absence hold for the method and conditions named. Binding seen in cells or lysates may run through a third protein. Some entries that bind do so weakly or less than the wild type.

T1: Inn1-TAP (S. cerevisiae) (UniProt P53901)
T1 sequence: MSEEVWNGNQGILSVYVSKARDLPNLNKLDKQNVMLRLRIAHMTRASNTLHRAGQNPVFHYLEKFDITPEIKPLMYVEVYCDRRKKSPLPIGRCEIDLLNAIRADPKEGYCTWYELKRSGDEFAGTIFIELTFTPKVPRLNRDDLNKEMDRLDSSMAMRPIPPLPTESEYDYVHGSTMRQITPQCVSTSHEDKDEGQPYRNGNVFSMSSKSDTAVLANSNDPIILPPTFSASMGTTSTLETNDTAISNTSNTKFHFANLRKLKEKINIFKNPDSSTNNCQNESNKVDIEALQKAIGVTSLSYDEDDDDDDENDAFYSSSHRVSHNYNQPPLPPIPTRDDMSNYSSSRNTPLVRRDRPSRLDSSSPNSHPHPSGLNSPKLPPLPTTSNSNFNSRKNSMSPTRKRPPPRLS

T2: Iqg1-6HA (S. cerevisiae) (UniProt Q12280)
T2 sequence: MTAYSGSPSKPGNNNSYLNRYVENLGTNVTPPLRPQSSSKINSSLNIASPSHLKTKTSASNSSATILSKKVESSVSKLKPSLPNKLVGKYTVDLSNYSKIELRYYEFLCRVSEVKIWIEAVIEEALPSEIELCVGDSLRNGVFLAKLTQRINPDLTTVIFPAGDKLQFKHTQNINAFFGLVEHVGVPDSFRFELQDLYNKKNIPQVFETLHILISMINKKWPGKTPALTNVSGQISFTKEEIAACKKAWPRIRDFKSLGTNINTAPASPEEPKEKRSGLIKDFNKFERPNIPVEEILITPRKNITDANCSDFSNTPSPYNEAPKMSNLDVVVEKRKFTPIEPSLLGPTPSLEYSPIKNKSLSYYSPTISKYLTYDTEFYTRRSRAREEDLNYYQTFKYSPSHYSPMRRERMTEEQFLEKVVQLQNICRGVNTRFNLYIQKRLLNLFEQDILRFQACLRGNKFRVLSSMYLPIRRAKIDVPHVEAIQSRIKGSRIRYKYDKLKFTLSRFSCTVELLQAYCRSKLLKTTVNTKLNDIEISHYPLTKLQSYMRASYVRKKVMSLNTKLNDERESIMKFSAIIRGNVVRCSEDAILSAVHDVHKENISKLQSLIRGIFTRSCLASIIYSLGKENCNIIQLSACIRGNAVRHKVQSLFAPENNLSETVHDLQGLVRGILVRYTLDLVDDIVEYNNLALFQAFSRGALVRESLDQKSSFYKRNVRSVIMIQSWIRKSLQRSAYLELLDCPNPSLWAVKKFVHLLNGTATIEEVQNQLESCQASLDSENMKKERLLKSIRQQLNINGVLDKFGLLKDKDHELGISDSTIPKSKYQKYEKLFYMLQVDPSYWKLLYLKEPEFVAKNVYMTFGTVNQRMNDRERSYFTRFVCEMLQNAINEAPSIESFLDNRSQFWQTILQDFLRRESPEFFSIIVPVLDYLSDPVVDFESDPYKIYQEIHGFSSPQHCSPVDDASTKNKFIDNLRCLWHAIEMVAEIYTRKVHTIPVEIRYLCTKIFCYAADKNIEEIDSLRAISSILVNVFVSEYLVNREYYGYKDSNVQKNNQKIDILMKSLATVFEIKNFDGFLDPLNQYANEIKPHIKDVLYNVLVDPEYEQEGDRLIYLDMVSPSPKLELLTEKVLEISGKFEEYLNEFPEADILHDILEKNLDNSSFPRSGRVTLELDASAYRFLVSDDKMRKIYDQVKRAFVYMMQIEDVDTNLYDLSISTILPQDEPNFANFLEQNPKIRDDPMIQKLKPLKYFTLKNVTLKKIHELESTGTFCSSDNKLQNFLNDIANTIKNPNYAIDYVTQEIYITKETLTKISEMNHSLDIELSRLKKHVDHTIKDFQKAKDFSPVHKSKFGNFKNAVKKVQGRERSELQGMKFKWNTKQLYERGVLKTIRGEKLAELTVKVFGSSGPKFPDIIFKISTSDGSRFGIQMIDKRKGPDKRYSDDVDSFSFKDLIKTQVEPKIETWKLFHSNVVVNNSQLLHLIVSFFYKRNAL

B1: Iqg1-6HA (protein, UniProt Q12280 1-1495)
chain: T2 sequence
B2: Cyk3 (endogenous, in yeast extract) (protein, UniProt Q07533 1-885)
chain: MATNLTSLKPPFKVKARYGWSGQTKGDLGFLEGDIMEVTRIAGSWFYGKLLRNKKCSGYFPHNFVILLEERLNSSTENGRQPSKIVESFEKSNKVVIPPVPSRYSDERPRPKKKLSSSMPNSPKKPVDSLTKARKAKSKEMVNEKNIYNTQSSRHHNNSAPNLPLASHSKPQVRNFEESMNNPLPPLPPLPDLDNMRKTDKRAPKKSYSANDLHMARSSREYNYYKDNQKFYDGFIPEKRYSLEEDSISSGLFSNSQYLNDSACSSENSFALMSDFSATSAGSFARHKYAQSFSDSLQRSQNANGCSTKINDSQEFGDSNASSRNGKMGDILRKIIIPKRNTNIYSSSVSSPKSPKAYPKLPDIQNLNLSATPDEARDWIAVKCHLNRARTLTKYDKHPRYMRALEENRDLILHPQDSIYNGLNTNEVKGNTKPGLVDVELAELNIEYIDKMTWKRCIRDGTMTLDSWAQTTFSARYSTVLEKLRGIYIFCTEMFALTDDNGTSDFSAEPQNLEKILYRKHCTPYELTWLFKKLANSLGITCEIVIGFLKTPSAINWEFKYNHCWLRILVNKEWRFIDVILGNVTNPIHEFVNNRKIKKAENSYFLMAPLEMIYTHIPPREFEQHIVPSIDQLSALYLPLVFPSFFKNELKLYKFSTALSFLEDSEIYECSLEIPNDVEVFASVVIPTDNEEASSAYRNMELALTQIKKQKAESGRRIALIKAVLPPNVNKGSLYIHSGVRGTQTSIANIHPLSMMVPLTHKGSNMKYEFVIKIPSESIQKIELYIVEPQSRYLFVGNEYSFEVIQSPSDGIVYSSDEGPNQNRKQPMAIKSPSGRVHELVKSDPHFPYGTWKGSIKIKEPGVWSALVIADSGIGWSVFAEWLCV
B3: Chs2 (in yeast extract, detected with anti-Chs2 antibodies) (enzyme, UniProt P14180 1-963)
chain: MTRNPFMVEPSNGSPNRRGASNLSKFYANANSNSRWANPSEESLEDSYDQSNVFQGLPASPSRAALRYSPDRRHRTQFYRDSAHNSPVAPNRYAANLQESPKRAGEAVIHLSEGSNLYPRDNADLPVDPYHLSPQQQPSNNLFGSGRLYSQSSKYTMSTTSTTAPSLAEADDEKEKYLTSTTSYDDQSTIFSADTFNETKFELNHPTRQQYVRRANSESKRRMVSDLPPPSKKKALLKLDNPIPKGLLDTLPRRNSPEFTEMRYTACTVEPDDFLREGYTLRFAEMNRECQIAICITMYNEDKYSLARTIHSIMKNVAHLCKREKSHVWGPNGWKKVSVILISDGRAKVNQGSLDYLAALGVYQEDMAKASVNGDPVKAHIFELTTQVSINADLDYVSKDIVPVQLVFCLKEENKKKINSHRWLFNAFCPVLQPTVVTLVDVGTRLNNTAIYRLWKVFDMDSNVAGAAGQIKTMKGKWGLKLFNPLVASQNFEYKISNILDKPLESVFGYISVLPGALSAYRYRALKNHEDGTGPLRSYFLGETQEGRDHDVFTANMYLAEDRILCWELVAKRDAKWVLKYVKEATGETDVPEDVSEFISQRRRWLNGAMFAAIYAQLHFYQIWKTKHSVVRKFFLHVEFLYQFIQMLFSWFSIANFVLTFYYLAGSMNLVIKHGEALFIFFKYLIFCDLASLFIISMGNRPQGAKHLFITSMVILSICATYSLICGFVFAFKSLASGTESHKIFVDIVISLLSTYGLYFFSSLMYLDPWHMFTSSIQYFLTLPAFTCTLQIFAFCNTHDVSWGTKGSTQESKQLSKAIVVQGPDGKQIVETDWPQEVDKKFLEIKSRLKEPEFEESSGNEKQSKNDYYRDIRTRIVMIWMLSNLILIMSIIQVFTPQDTDNGYLIFILWSVAALAAFRVVGSMAFLFMKYLRIIVSYRNKVEGSGSWEVSKLDLPNVFHKKG
B4: Inn1 (in yeast extract, detected with anti-Inn1 antibodies) (protein, UniProt P53901 1-409)
chain: T1 sequence

Legend:
Inn1-TAP (S. cerevisiae) = target: T1, Inn1-TAP (S. cerevisiae); assay: co-IP; yeast cell extracts 105 minutes after release from G1 arrest (alpha factor) at 24°C, cells in cytokinesis; TAP fusions immunoprecipitated on IgG beads; immunoblot
Iqg1-6HA (S. cerevisiae) = target: T2, Iqg1-6HA (S. cerevisiae); assay: co-IP; yeast extract of IQG1-6HA cells 105 minutes after release from G1 (cytokinesis); immunoprecipitation of Iqg1-6HA; immunoblot with antibodies against Chs2, Inn1 and Cyk3

Row | Binder | binding (Inn1-TAP (S. cerevisiae)) | binding (Iqg1-6HA (S. cerevisiae))
1 | B1 | binds | 
2 | B2 | binds | binds
3 | B3 |  | binds
4 | B4 |  | binds
